Two molecules from EP1584686A1, “Progenitor cell preservation factors and related methods and products” (ImClone Systems Incorporated, priority 1999, dated 2001) can be followed below.

Amino acid sequences for entries named in this document (tags omitted). Residues count along the entry.
UniProt P01012, residues 2-386: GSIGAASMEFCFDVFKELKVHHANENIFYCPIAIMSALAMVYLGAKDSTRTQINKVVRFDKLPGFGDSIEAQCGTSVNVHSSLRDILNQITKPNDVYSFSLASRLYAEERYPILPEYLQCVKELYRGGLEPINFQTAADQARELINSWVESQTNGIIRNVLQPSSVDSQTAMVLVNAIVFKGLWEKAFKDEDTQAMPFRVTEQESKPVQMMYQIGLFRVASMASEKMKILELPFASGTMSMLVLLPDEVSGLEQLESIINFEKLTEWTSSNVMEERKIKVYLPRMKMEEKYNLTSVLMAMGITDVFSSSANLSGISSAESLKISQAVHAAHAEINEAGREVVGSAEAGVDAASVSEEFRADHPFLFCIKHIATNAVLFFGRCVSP

No constants are given. Whether binding was seen depends on the method and setting. Some binding calls cover weakened binding; strength is not graded here.

Experiment [1] concerns the target Ovalbumin immobilised on Sepharose / gel affinity column (UniProt P01012). In words: batch binding of tobacco leaf extract to ovalbumin-Sepharose, elution with 200 mM trehalose.
The target is the same in experiment [2]. Briefly: ovalbumin gel affinity column, elution with 200 mM trehalose.

B1: Recombinant Pv-FRIL produced in transformed tobacco (pM-SpPv-FRIL) and purified from the leaves (protein)
chain: AQSLSFNFTKFDLDQKDLIFQGDATSTNNVLQLTKLDSGGNPVGASVGRVLFSAPFHLWENSMAVSSFETNLTIQISTPHPYYAADGFAFFLAPHDTVIPPNSWGKFLGLYSNVFRNSPTSENQSFGDVNTDSRVVAVEFDTFPNANIDPNYRHIGIDVNSIKSKETARWEWQNGKTATARISYNSASKKSTVTTFYPGMEVVALSHDVDLHAELPEWVRVGLSASTGEEKQKNTIISWSFTSSLKNNEVKEPKEDMYIANVVRSYTWINDVLSYISNK
For B1, the binding entry in experiment [1] was “binds”.

B2: YamFRIL purified from Sphenostylis stenocarpa (yam bean) seeds (protein)
chain: AQSVSFTFTKFDSDQKDLMFQGHTISSSNVIQLTKLDSNGNPVSTSVGRVLYSAPLRLWESSTVVSTFETTFTFQISTPYTSPPGDGLAFFLAPYDTVIPPNSAGNLLGLFPNLNALRNSTTSKETTIDVNAASNNVVAVEFDTYPNDNIGDPRYKHIGIDVNSIRSKATVAWDWQNGKTATAHISYNSASKRLSVTTFYPGGKAVSLSHDVELTQVLPQWIRVGFSASTGLEK
As to B2, in experiment [2], the binding entry is given as “binds”.
